Our source for the cell number change and AC50 values is PubChem BioAssay AID2685 (National Center for Advancing Translational Sciences (NCATS), 2010).

Some of the results follow. These are further read-outs of the screen, such as a control signal, another cell line or another target. No call is given for them. The list favours compounds with an active or inconclusive main result. Potencies come from curve fits of mixed quality, noted in brackets.

A short description of this assay: qHTS Assay for Lipid Storage Modulators in Drosophila S3 Cells.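 On cell number change: cells counted by Cell Tracker Red CMTPX staining in the red channel.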 The settings on record: BODIPY lipid droplet fluorescence, 18-24 h; for cell number change: measured here: cell count max response, cells fed with added oleic acid. In short, it runs like this: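 Drosophila S3 cells got compounds at several concentrations plus oleic acid (400 uM solution). Laser-scanning cytometry with 488 nm excitation read lipid droplets at 500-530 nm and cells at 575-640 nm. Percent activity was relative to 20 uM Triacsin C.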

Setting [1] is: measured here: lipid fluorescence (Fed channel) AC50, cells fed with added oleic acid.
The mark [2] stands for this setting: measured here: cell number channel AC50, cells fed with added oleic acid.

In the case of `C=CCNc1nc(Nc2ccc(OC)cc2OC)nc(OCC)n1`, the cell number change was -15.3%. Besides, the AC50 under setting [1] is 1.46 µM [rising, partial curve].

On to `Cc1ccccc1CN(C)C(C)C(=O)Nc1ccccc1F` (stereo not drawn), for which the cell number change is -58.8%. The AC50 under setting [2] was 0.731 µM [falling, partial curve]. Besides, the AC50 under setting [1] is 29.1 µM [falling, single point].

In the case of `COc1cc(NC(=O)CSc2nnc(NC(C)C)s2)cc(OC)c1OC`, the AC50 was 0.58 µM [rising, partial curve] under setting [2] and 6.51 µM [rising, single point] under setting [1].

Consider `C/C(=N\NC(=O)c1ccc2c(c1)OCO2)c1ccc(NC(=O)CCCC(=O)O)cc1`, for which the cell number change was -11.9%. Further, the AC50 under setting [1] is 29.1 µM [rising, single point].

On to `COc1ccc(CN2CCN(C(C)C(=O)NC(C)c3ccc(F)cc3)CC2)cc1F` (stereo not drawn), for which the cell number change was 4.58%. Besides, the AC50 under setting [1] is 0.164 µM [rising, full curve, poor fit].

Take `COc1ccc(CN(C)C(=O)c2sccc2-c2ccccc2)c(OC)c1`: the cell number change was 0.796%.

Turning to `COc1ccc(NC(=O)/C=C/c2cccc(F)c2)cn1`, the cell number change worked out at 15.4%. In addition, the AC50 under setting [1] is 10.3 µM [rising, partial curve].

Turning to `COc1ccc(CCNC(=O)CS(=O)(=O)c2cn(CC(=O)N3CCCC3)c3ccccc23)cc1OC`, the cell number change was -36.2%. In addition, the half-maximal activity concentration (AC50) under setting [2] is 0.184 µM [falling, full curve, poor fit]. The AC50 under setting [1] was 29.1 µM [falling, single point].

On to `Cc1ccccc1C(=O)Nc1nc2n(n1)C(c1ccccc1)CC(=O)N2` (stereo not drawn), for which the cell number change was -43.5%. Further, the AC50 under setting [2] was 0.058 µM [falling, full curve, poor fit].

In the case of `Cc1ccccc1CC1(CO)CCCN(Cc2ccn[nH]2)C1` (stereo not drawn), the cell number change was -16.4%. In addition, the AC50 under setting [1] is 4.11 µM [falling, full curve].

For the compound `Cc1cccc(C)c1NC(=O)NC1CCc2ccccc21` (stereo not drawn), the cell number change came out at 26.8%. Moreover, the AC50 under setting [1] is 1.84 µM [rising, full curve, poor fit].

As for `CCn1c(SCc2ccccc2)nnc1-c1ccc(S(=O)(=O)N2CCCCC2)cc1`, the cell number change was -17.7%. In addition, the AC50 under setting [1] was 7.31 µM [falling, partial curve, poor fit].

Turning to `Cn1c(N)c(C(=O)COC(=O)CCC2CCCCC2)c(=O)n(C)c1=O`, the cell number change is -46.4%. Further, the AC50 under setting [2] is 0.82 µM [falling, full curve, poor fit]. Under setting [1], the AC50 was 0.00461 µM [falling, full curve, poor fit].

On to `CCn1c(=O)n(CC(=O)Nc2cc(OC)c(OC)c(OC)c2)c(=O)c2ccccc21`, for which, under setting [2], the AC50 is 6.51 µM [rising, single point].

Take `CC1CCCCN1C(=O)CSc1nnc(CSc2ncccn2)n1C` (stereo not drawn): the cell number change was determined as 53%. Moreover, the AC50 under setting [2] was 2.06 µM [rising, partial curve].

As for `CCc1ccccc1NC(=O)CNC(=O)c1cc(C2CC2)nc2c1cnn2C(C)C`, the cell number change came out at 12.8%. Besides, under setting [2], the AC50 was 0.58 µM [rising, partial curve, poor fit]. Moreover, under setting [1], the AC50 is 0.0259 µM [rising, full curve, poor fit].

Take `COc1ccc(C(=O)Cn2c(=O)c(CCC(=O)O)nn3c4ccccc4nc23)cc1OC`: the AC50 reads like this: under setting [2], 2.91 µM [falling, single point]; under setting [1], 16.4 µM [falling, partial curve].

For the compound `CC(CC(=O)O)CC(=O)Nc1nncs1` (stereo not drawn), the cell number change is -13.5%. Further, under setting [1], the AC50 is 0.731 µM [falling, full curve, poor fit].

In the case of `Oc1ccc(-c2nc3ccccn3c2NCc2ccco2)cc1`, the cell number change came out at 20.1%. The AC50 under setting [2] is 6.51 µM [rising, single point].

`C/C(=N\NC(=O)c1c(-c2ccccc2Cl)noc1C)c1cccc(NC(=O)C(C)C)c1`: under setting [1], the AC50 is 2.91 µM [rising, single point].

As for `CCSc1nnc(CCNS(=O)(=O)c2ccc(C(C)=O)cc2)n1C`, the cell number change came to 23.3%.

Turning to `CCn1c2ccc(C)cc2c2nnc(NN)nc21`, the cell number change stood at 36.1%. For the same compound, the AC50 under setting [2] is 7.31 µM [rising, partial curve]. The AC50 under setting [1] is 7.31 µM [rising, partial curve, poor fit].

Take `O=C(NCc1ccco1)c1cc2nc(-c3ccc4c(c3)OCO4)cc(C(F)(F)F)n2n1`: the cell number change was 70.9%. The AC50 under setting [2] was 0.103 µM [rising, full curve]. Further, under setting [1], the AC50 was 0.0411 µM [rising, full curve].

Consider `O=C(CNS(=O)(=O)c1ccc(Br)s1)NCC1COc2ccccc2O1` (stereo not drawn), for which the cell number change is -36.2%. Besides, the AC50 under setting [1] was 1.16 µM [rising, full curve, poor fit].

`NS(=O)(=O)c1ccc(NC(=S)NC(=O)/C=C/c2cccs2)cc1`: the cell number change is 7.57%. Further, the AC50 under setting [1] is 0.651 µM [rising, full curve, poor fit].

With `Cc1nccn1Cc1cccc2ccccc12`, the cell number change was determined as 3.78%. Also, under setting [1], the AC50 is 0.00461 µM [falling, full curve, poor fit].

On to `COc1ccc(CCNC(=O)CCn2c(=O)c3cccn3c3ccc(F)cc32)c(OC)c1OC`, for which the cell number change was -15%. Besides, the AC50 under setting [2] is 6.51 µM [falling, single point].

In the case of `COc1ccccc1-c1nnc(SCC(=O)Nc2c(Cl)cccc2Cl)o1`, the cell number change stood at 31.1%. Moreover, the AC50 under setting [2] is 0.411 µM [rising, full curve, poor fit]. Also, the AC50 under setting [1] is 0.461 µM [rising, full curve].

For the compound `COc1ccc(CCn2c(C)cc(C(=O)CN3C(=O)C(=O)N(Cc4ccco4)C3=O)c2C)cc1`, the cell number change was -1.32%. Further, the AC50 under setting [1] is 6.51 µM [rising, single point].

On to `Cn1c2c(c(=O)n(C)c1=O)CN(Cc1ccco1)CN2`, for which the cell number change is 6.66%.

Consider `CC(C)(C)OC(=O)N1CCN(C(=O)c2cccnc2Cl)CC1`, for which the cell number change was -47.6%. In addition, the AC50 under setting [2] is 5.8 µM [falling, full curve]. Under setting [1], the AC50 was 6.51 µM [falling, single point].

As to `Cc1nn2c(NCc3ccccn3)c3c(nc2c1-c1ccccc1)CCC3`, the cell number change was determined as 1.85%. The AC50 under setting [1] was 0.00517 µM [rising, full curve, poor fit].

With `CC(=O)Nc1ccc2c(c1)nc1n2CCSC1`, the cell number change turned out to be 5.27%.

With `Cc1ccc(C)c(NC(=O)NC2CCCCCCC2)c1`, the AC50 under setting [1] is 6.51 µM [rising, single point].

As for `CC1(c2ccc3c(c2)OCO3)NC(=O)N(CC(=O)Nc2ccccc2[N+](=O)[O-])C1=O` (stereo not drawn), the cell number change stood at 1.82%. Under setting [1], the AC50 is 6.51 µM [falling, full curve, poor fit].

As to `CC(=O)c1cccc(NC(=O)N2CCC(c3nnc(SCC(N)=O)n3C)CC2)c1`, the cell number change turned out to be 60.6%. For the same compound, the AC50 under setting [2] was 20.6 µM [rising, partial curve].
